No constants are given. Whether binding was seen depends on the method and setting. Some binding calls cover weakened binding; strength is not graded here.
Molecular target: scaffoldin Scaf-ct displayed on the yeast cell surface (chimeric: C. cellulolyticum, C. thermocellum)
Experiment: immunofluorescence microscopy with anti-His6, yeast displaying Scaf-ct

## endoglucanase CelA fused with a dockerin domain from C. thermocellum (At), His6-tagged, from E. coli (from UniProt A3DC29 33-477) (enzyme)
  binding: binds
